According to publication PMC7592556:
No constants are given. Whether binding was seen depends on the method and setting. In cells and extracts the contact can be indirect. These calls come from enrichment with a bait or labelling near it, and not all partners need be listed.

The chains behind the UniProt entries cited, without tags or fusion partners. Residues count along the entry.
His6-SUMO fusion protein of the complete Shank3 N-terminus (SPN-Ank, residues 1-348) (Q9JLU4, residues 1-348): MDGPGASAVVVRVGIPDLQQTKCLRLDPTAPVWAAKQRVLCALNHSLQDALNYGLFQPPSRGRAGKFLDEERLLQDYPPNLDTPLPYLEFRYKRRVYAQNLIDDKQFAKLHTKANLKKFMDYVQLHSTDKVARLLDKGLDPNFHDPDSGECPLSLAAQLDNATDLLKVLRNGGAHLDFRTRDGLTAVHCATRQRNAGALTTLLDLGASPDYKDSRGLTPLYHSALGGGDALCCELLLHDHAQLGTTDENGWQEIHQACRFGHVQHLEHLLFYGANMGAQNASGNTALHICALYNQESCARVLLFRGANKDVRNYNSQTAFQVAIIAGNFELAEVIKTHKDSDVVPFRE
His6-SUMO fusion protein of the Shank3 Ank repeats (residues 99-348) (Q9JLU4, residues 99-348): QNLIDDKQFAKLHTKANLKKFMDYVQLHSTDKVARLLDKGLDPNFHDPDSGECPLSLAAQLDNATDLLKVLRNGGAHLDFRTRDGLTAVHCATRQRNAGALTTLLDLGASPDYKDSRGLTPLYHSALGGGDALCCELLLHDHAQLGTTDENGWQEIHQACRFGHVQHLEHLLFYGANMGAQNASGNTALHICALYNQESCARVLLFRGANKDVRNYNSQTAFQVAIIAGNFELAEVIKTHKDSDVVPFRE

B1: Latrophilin-1 (protein, UniProt Q80TR1 29-1466)
chain: GLPFGLMRRELACEGYPIELRCPGSDVIMVENANYGRTDDKICDADPFQMENVQCYLPDAFKIMSQRCNNRTQCVVVAGSDAFPDPCPGTYKYLEVQYDCVPYIFVCPGTLQKVLEPTSTHESEHQSGAWCKDPLQAGDRIYVMPWIPYRTDTLTEYASWEDYVAARHTTTYRLPNRVDGTGFVVYDGAVFYNKERTRNIVKYDLRTRIKSGETVINTANYHDTSPYRWGGKTDIDLAVDENGLWVIYATEGNNGRLVVSQLNPYTLRFEGTWETGYDKRSASNAFMVCGVLYVLRSVYVDDDSEAAGNRVDYAFNTNANREEPVSLAFPNPYQFVSSVDYNPRDNQLYVWNNYFVVRYSLEFGPPDPSAGPATSPPLSTTTTARPTPLTSTASPAATTPLRRAPLTTHPVGAINQLGPDLPPATAPAPSTRRPPAPNLHVSPELFCEPREVRRVQWPATQQGMLVERPCPKGTRGIASFQCLPALGLWNPRGPDLSNCTSPWVNQVAQKIKSGENAANIASELARHTRGSIYAGDVSSSVKLMEQLLDILDAQLQALRPIERESAGKNYNKMHKRERTCKDYIKAVVETVDNLLRPEALESWKDMNATEQVHTATMLLDVLEEGAFLLADNVREPARFLAAKQNVVLEVTVLNTEGQVQELVFPQEYPSENSIQLSANTIKQNSRNGVVKVVFILYNNLGLFLSTENATVKLAGEAGTGGPGGASLVVNSQVIAASINKESSRVFLMDPVIFTVAHLEAKNHFNANCSFWNYSERSMLGYWSTQGCRLVESNKTHTTCACSHLTNFAVLMAHREIYQGRINELLLSVITWVGIVISLVCLAICISTFCFLRGLQTDRNTIHKNLCINLFLAELLFLVGIDKTQYEVACPIFAGLLHYFFLAAFSWLCLEGVHLYLLLVEVFESEYSRTKYYYLGGYCFPALVVGIAAAIDYRSYGTEKACWLRVDNYFIWSFIGPVSFVIVVNLVFLMVTLHKMIRSSSVLKPDSSRLDNIKSWALGAIALLFLLGLTWAFGLLFINKESVVMAYLFTTFNAFQGVFIFVFHCALQKKVHKEYSKCLRHSYCCIRSPPGGTHGSLKTSAMRSNTRYYTGTQSRIRRMWNDTVRKQTESSFMAGDINSTPTLNRGTMGNHLLTNPVLQPRGGTSPYNTLIAESVGFNPSSPPVFNSPGSYREPKHPLGGREACGMDTLPLNGNFNNSYSLRSGDFPPGDGGPEPPRGRNLADAAAFEKMIISELVHNNLRGASGGAKGPPPEPPVPPVPGVSEDEAGGPGSADRAEIELLYKALEEPLLLPRAQSVLYQSDLDESESCTAEDGATSRPLSSPPGRDSLYASGANLRDSPSYPDSSPEGPNEALPPPPPAPPGPPEIYYTSRPPALVARNPLQGYYQVRRPSHEGYLAAPSLEGPGPDGDGQMQLVTSL
B2: Disks large homolog 3 (protein, UniProt P70175 1-849)
chain: MHKHQHCCKCPECYEVTRLAALRRLEPPGYGDWQVPDPYGPSGGNGASSGYGGYSSQTLPSQAGATPTPRTKAKLIPTGRDVGPVPPKPVPGKSTPKLNGSGPGWWPECTCTNRDWYEQASPAPLLVNPEALEPSLSVNGSDGMFKYEEIVLERGNSGLGFSIAGGIDNPHVPDDPGIFITKIIPGGAAAMDGRLGVNDCVLRVNEVDVSEVVHSRAVEALKEAGPVVRLVVRRRQPPPETIMEVNLLKGPKGLGFSIAGGIGNQHIPGDNSIYITKIIEGGAAQKDGRLQIGDRLLAVNNTNLQDVRHEEAVASLKNTSDMVYLKVAKPGSIHLNDMYAPPDYASTFTALADNHISHNSSLGYLGAVESKVTYPAPPQVPPTRYSPIPRHMLAEEDFTREPRKIILHKGSTGLGFNIVGGEDGEGIFVSFILAGGPADLSGELRRGDRILSVNGVNLRNATHEQAAAALKRAGQSVTIVAQYRPEEYSRFESKIHDLREQMMNSSMSSGSGSLRTSEKRSLYVRALFDYDRTRDSCLPSQGLSFSYGDILHVINASDDEWWQARLVTPHGESEQIGVIPSKKRVEKKERARLKTVKFHARTGMIESNRDFPGLSDDYYGAKNLKGVTSNTSDSESSSKGQEDAILSYEPVTRQEIHYARPVIILGPMKDRVNDDLISEFPHKFGSCVPHTTRPRRDNEVDGQDYHFVVSREQMEKDIQDNKFIEAGQFNDNLYGTSIQSVRAVAERGKHCILDVSGNAIKRLQQAQLYPIAIFIKPKSIEALMEMNRRQTYEQANKIFDKAMKLEQEFGEYFTAIVQGDSLEEIYNKIKQIIEDQSGHYIWVPSPEKL
B3: SRC kinase signaling inhibitor 1 (protein, UniProt Q9QWI6 1-1250)
chain: MQPWQCLRRFALAWWERTAEGRARSPREEVGPRDPGGRGEPDPERSSPPMLSADDAEYPREYRTLGGGGGGGSGGRRFSNVGLVHTSERRHTVIAAQSLEALSGLQKADADRKRDAFMDHLKSKYPQHALALRGQQDRMREQVGGWTVDPVCLLSSLCSHLHGDSTPSGAGQPAQQPNYWSFKTRSSRHTQGAQPGLADQAAKLSYASAESLETMSEAELPLGFSRMNRFRQSLPLSRSASQTKLRSPGVLFLQFGEETRRVHITHEVSSLDTLHALIAHMFPQKLTMGMLKSPNTAILIKDEARNVFYELEDVRDIQDRSIIKIYRKEPLYAAFPGSHLTNGDLRREMVYASRESSPTRRLNNLSPASHLASSSPPPGLPSGLPSGLPSGSPSRSRLSYAGGRPPSYAGSPVHHAAERLGGAPTGQGVSPSPSAILERRDVKPDEDLAGKAGGMVLVKGEGLYADPYGLLHEGRLSLAAAAETHSHTRARAACTSGVPCALSAPTPLPRCSPTWRTRCTRRALAALYGDGYGFRLPPSSPQKLADVSAPSGGPPPPHSPYSGPPSRGSPVRQSFRKDSGSSSVFAESPGGKARSTGSASTAGAPPSELFPGPGERSLVGFGPPVPAKDTETRERMEAMEKQIASLTGLVQSALLRGSEPETPSEKVEGSNGAATPSAPVCGSGSKSSGATPVSGPPPPSASSTPAGQPTAVSRLQMQLHLRGLQNSASDLRGQLQQLRNVQLQNQESVRALLKPTEADVSMRVSEAARRQEDPLQRQRTLVEEERLRYLNDEELITQQLNDLEKSVEKIQRDVAHNHRLMPGPELEEKALVLKQLGETLTELKAHFPGLQSKMRVVLRVEVEAVKFLKEEPQRLDGLLKRCRGVTDTLAQIRRQVDEGMWPPPNNLLNQSPKKVAAETDFSKGLDFEIPPPSPPLNLHELSGPAEGTPLTPKSTNPTKCLDASSKRNTDKAVSVEAAERDWEEKRAALTQYSAKDINRLLEETQAELLKAIPDLDCASKTHPGPAPTPDHKPPKAPHGQKAAPRTEPSGRRGSDELTVPRYRTEKPSKSPPPPPPRRSFPSSHGLTTTRTGEVVVTSKKDSVFIKKAESEELEVQKPQVKLRRAVSEVVRPASTPPIMASAIKDEDDEERIIAELESGGSSVPPMKVVTPGASRLKAAQGPAGSPDKGKHGKQRTEYMRIQAQQQATKPSKEVSGPNETSSPGSEKPSGSRTSIPVLTSFGARNSSISF

The binders below were run against His6-SUMO fusion protein of the complete Shank3 N-terminus (SPN-Ank, residues 1-348) (rat) (UniProt Q9JLU4) (assay: affinity purification with mass spectrometry; His6-SUMO-Shank3 fragments (SPN-Ank or Ank only) coupled to NHS-Sepharose; mouse forebrain PSD fraction solubilised in DOC buffer (50 mM Tris pH 9.0, 1% Na-deoxycholate); 2 h, 5 washes; LC-MS/MS, LFQ intensities compared with a SUMO matrix; four purifications (two SPN-Ank, two Ank only); only the target purified).

binding | Binder
binds | B1
binds | B2
binds | B3

The binders below were run against His6-SUMO fusion protein of the Shank3 Ank repeats (residues 99-348) (rat) (UniProt Q9JLU4) in the same assay as above.

binding | Binder
binds | B1
binds | B2
binds | B3
